The record followed here is paper PMC5529527.

Protein sequences, listed by entry. Tags and fused reporters are not part of them.
UniProt Q62432: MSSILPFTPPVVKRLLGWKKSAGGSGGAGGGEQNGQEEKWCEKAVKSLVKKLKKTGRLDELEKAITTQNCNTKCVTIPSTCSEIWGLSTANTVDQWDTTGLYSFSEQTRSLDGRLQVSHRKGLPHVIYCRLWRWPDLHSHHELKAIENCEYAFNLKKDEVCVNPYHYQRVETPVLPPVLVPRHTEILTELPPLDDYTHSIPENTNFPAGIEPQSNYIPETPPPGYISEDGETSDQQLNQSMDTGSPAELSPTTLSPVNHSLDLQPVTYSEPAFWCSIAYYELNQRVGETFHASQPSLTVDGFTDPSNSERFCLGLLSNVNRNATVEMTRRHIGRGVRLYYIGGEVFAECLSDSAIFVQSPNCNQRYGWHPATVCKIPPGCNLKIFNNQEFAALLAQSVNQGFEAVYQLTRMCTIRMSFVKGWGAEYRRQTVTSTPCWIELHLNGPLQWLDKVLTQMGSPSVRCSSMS
UniProt Q8BUN5: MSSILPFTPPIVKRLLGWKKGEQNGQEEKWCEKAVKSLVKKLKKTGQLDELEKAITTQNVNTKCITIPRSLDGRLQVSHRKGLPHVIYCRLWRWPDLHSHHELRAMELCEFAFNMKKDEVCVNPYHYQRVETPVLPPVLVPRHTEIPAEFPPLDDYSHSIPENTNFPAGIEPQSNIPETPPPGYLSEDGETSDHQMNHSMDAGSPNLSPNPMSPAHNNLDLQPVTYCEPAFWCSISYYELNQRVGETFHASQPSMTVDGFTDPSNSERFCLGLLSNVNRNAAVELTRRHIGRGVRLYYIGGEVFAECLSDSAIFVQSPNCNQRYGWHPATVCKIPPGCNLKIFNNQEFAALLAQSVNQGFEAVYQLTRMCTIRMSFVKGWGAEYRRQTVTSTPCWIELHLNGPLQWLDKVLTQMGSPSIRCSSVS

No constants are given. Whether binding was seen depends on the method and setting. Binding seen in cells or lysates may run through a third protein. Some entries that bind do so weakly or less than the wild type.

In experiment [1] the target is T1, TGFβR1 (mouse (endogenous in primary HSCs and AML12)) (UniProt Q64729).
T1 sequence: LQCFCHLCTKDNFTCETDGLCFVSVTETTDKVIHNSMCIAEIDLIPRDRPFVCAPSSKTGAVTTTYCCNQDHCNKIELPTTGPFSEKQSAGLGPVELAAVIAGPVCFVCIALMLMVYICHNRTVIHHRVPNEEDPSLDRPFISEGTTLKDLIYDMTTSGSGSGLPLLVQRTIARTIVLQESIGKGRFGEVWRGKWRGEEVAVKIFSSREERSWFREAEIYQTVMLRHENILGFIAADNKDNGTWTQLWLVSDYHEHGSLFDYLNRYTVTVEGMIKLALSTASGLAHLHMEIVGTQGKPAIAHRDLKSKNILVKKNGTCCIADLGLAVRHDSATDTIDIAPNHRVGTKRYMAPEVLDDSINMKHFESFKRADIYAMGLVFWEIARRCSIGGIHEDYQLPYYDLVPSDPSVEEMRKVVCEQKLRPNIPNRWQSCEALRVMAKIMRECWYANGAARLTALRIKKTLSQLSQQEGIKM
The experiment is described as follows: co-IP; co-immunoprecipitation from AML12 cells with or without over-expression of lnc-LFAR1 (Supplementary Fig. 13g).

The target in experiment [2] is T1, TGFβR1 (mouse (endogenous in primary HSCs and AML12)). Kind of experiment: co-IP; TGFβR1 and Smad2/3 antibodies used for co-immunoprecipitation from lysates of primary HSCs infected with or without LV-lnc-LFAR1; western blot.

Consider Smad2 (from UniProt Q62432 1-467), for which the binding entry in experiment [1] and in experiment [2] was “binds” each time.

As to Smad3 (from UniProt Q8BUN5 1-425), the binding entry in experiment [1] and in experiment [2] was “binds” throughout.
